From paper PMC6639074 come the findings set out here.

Protein sequences, listed by entry. Tags and fused reporters are not part of them. Lines headed by an entry give the natural chain unless they say otherwise; changes in a name come on top.
UniProt P61026: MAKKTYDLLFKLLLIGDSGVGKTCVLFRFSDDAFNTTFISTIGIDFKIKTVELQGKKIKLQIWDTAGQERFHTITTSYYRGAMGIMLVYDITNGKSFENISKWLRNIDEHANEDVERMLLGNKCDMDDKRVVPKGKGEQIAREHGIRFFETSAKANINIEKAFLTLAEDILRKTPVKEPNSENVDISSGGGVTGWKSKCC
UniProt P61006: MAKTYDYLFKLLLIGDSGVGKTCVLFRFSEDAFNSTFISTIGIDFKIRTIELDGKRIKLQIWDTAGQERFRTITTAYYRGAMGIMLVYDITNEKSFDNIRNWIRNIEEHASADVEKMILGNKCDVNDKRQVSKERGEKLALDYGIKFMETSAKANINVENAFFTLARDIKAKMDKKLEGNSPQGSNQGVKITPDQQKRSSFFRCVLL

Assay in all cases: proximity labelling; MitoID: GTPase-BirA*-HA-MAO chimera on mitochondria of transiently transfected HEK293T cells, 50 uM biotin 18 h, streptavidin beads, mass spectrometry, biological triplicates; hits by WD scores and volcano plots against the GDP-locked forms
The target in experiment [1] is Rab10(Q68L)-BirA*-HA-MAO (human) (UniProt P61026).
In experiment [2] the target is Rab8A(Q67L)-BirA*-HA-MAO (human) (UniProt P61006).
For experiment [3], the target named is T1, RalB(G23V)-BirA*-HA-MAO (human) (UniProt P11234).
T1 sequence: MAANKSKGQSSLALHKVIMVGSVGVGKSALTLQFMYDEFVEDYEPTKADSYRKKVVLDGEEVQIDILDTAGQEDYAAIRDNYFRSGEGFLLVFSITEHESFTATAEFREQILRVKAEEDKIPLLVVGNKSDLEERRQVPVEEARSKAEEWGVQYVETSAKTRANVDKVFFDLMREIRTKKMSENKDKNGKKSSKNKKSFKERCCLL

Results are given in words; binding and its absence hold for the method and conditions named. Binding seen in cells or lysates may run through a third protein. A yes stands for co-enrichment or nearness to the bait. Other partners may have been found. For some assays here: Where a sequence is shown, tags or fusion partners need not be part of it.

B1: ARHGEF10 (protein, UniProt O15013 1-1369)
chain: MRPPGFLSRAPSLNRAERGIWSCSMDQREPLPPAPAENEMKYDTNNNEEEEGEQFDFDSGDEIPEADRQAPSAPETGGAGASEAPAPTGGEDGAGAETTPVAEPTKLVLPMKVNPYSVIDITPFQEDQPPTPVPSAEEENVGLHVPCGYLVPVPCGYAVPSNLPLLLPAYSSPVIICATSLDEEAETPEVTEDRQPNSLSSEEPPTSEDQVGREDSALARWAADPANTAWMENPEEAIYDDVPRENSDSEPDEMIYDDVENGDEGGNSSLEYGWSSSEFESYEEQSDSECKNGIPRSFLRSNHKKQLSHDLTRLKEHYEKKMRDLMASTVGVVEIQQLRQKHELKMQKLVKAAKDGTKDGLERTRAAVKRGRSFIRTKSLIAQDHRSSLEEEQNLFIDVDCKHPEAILTPMPEGLSQQQVVRRYILGSVVDSEKNYVDALKRILEQYEKPLSEMEPKVLSERKLKTVFYRVKEILQCHSLFQIALASRVSEWDSVEMIGDVFVASFSKSMVLDAYSEYVNNFSTAVAVLKKTCATKPAFLEFLKQEQEASPDRTTLYSLMMKPIQRFPQFILLLQDMLKNTSKGHPDRLPLQMALTELETLAEKLNERKRDADQRCEVKQIAKAINERYLNKLLSSGSRYLIRSDDMIETVYNDRGEIVKTKERRVFMLNDVLMCATVSSRPSHDSRVMSSQRYLLKWSVPLGHVDAIEYGSSAGTGEHSRHLAVHPPESLAVVANAKPNKVYMGPGQLYQDLQNLLHDLNVIGQITQLIGNLKGNYQNLNQSVAHDWTSGLQRLILKKEDEIRAADCCRIQLQLPGKQDKSGRPTFFTAVFNTFTPAIKESWVNSLQMAKLALEEENHMGWFCVEDDGNHIKKEKHPLLVGHMPVMVAKQQEFKIECAAYNPEPYLNNESQPDSFSTAHGFLWIGSCTHQMGQIAIVSFQNSTPKVIECFNVESRILCMLYVPVEEKRREPGAPPDPETPAVRASDVPTICVGTEEGSISIYKSSQGSKKVRLQHFFTPEKSTVMSLACTSQSLYAGLVNGAVASYARAPDGSWDSEPQKVIKLGVLPVRSLLMMEDTLWAASGGQVFIISVETHAVEGQLEAHQEEGMVISHMAVSGVGIWIAFTSGSTLRLFHTETLKHLQDINIATPVHNMLPGHQRLSVTSLLVCHGLLMVGTSLGVLVALPVPRLQGIPKVTGRGMVSYHAHNSPVKFIVLATALHEKDKDKSRDSLAPGPEPQDEDQKDALPSGGAGSSLSQGDPDAAIWLGDSLGSMTQKSDLSSSSGSLSLSHGSSSLEHRSEDSTIYDLLKDPVSLRSKARRAKKAKASSALVVCGGQGHRRVHRKARQPHQEELAPTVMVWQIPLLNI
As to B1, the binding result in experiment [1] and in experiment [2] was “binds” throughout.

B2: REPS1/Reps1 (protein, UniProt Q96D71 1-796)
chain: MEGLTLSDAEQKYYSDLFSYCDIESTKKVVVNGRVLELFRAAQLPNDVVLQIMELCGATRLGYFGRSQFYIALKLVAVAQSGFPLRVESINTVKDLPLPRFVASKNEQESRHAASYSSDSENQGSYSGVIPPPPGRGQVKKGSVSHDTVQPRTSADAQEPASPVVSPQQSPPTSPHTWRKHSRHPSGGNSERPLAGPGPFWSPFGEAQSGSSAGDAVWSGHSPPPPQENWVSFADTPPTSTLLTMHPASVQDQTTVRTVASATTAIEIRRQSSSYDDPWKITDEQRQYYVNQFKTIQPDLNGFIPGSAAKEFFTKSKLPILELSHIWELSDFDKDGALTLDEFCAAFHLVVARKNGYDLPEKLPESLMPKLIDLEDSADVGDQPGEVGYSGSPAEAPPSKSPSMPSLNQTWPELNQSSEQWETFSERSSSSQTLTQFDSNIAPADPDTAIVHPVPIRMTPSKIHMQEMELKRTGSDHTNPTSPLLVKPSDLLEENKINSSVKFASGNTVADGYSSSDSFTSDPEQIGSNVTRQRSHSGTSPDNTAPPPPPPRPQPSHSRSSSLDMNRTFTVTTGQQQAGVVAHPPAVPPRPQPSQAPGPAVHRPVDADGLITHTSTSPQQIPEQPNFADFSQFEVFAASNVNDEQDDEAEKHPEVLPAEKASDPASSLRVAKTDSKTEEKTAASAPANVSKGTTPLAPPPKPVRRRLKSEDELRPEVDEHTQKTGVLAAVLASQPSIPRSVGKDKKAIQASIRRNKETNTVLARLNSELQQQLKDVLEERISLEVQLEQLRPFSHL
For B2, the binding result in experiment [3] is on record as “binds”.

B3: synaptotagmin-like 4 (SYTL4) (protein, UniProt Q96C24 1-671)
chain: MSELLDLSFLSEEEKDLILSVLQRDEEVRKADEKRIRRLKNELLEIKRKGAKRGSQHYSDRTCARCQESLGRLSPKTNTCRGCNHLVCRDCRIQESNGTWRCKVCAKEIELKKATGDWFYDQKVNRFAYRTGSEIIRMSLRHKPAVSKRETVGQSLLHQTQMGDIWPGRKIIQERQKEPSVLFEVPKLKSGKSALEAESESLDSFTADSDSTSRRDSLDKSGLFPEWKKMSAPKSQVEKETQPGGQNVVFVDEGEMIFKKNTRKILRPSEYTKSVIDLRPEDVVHESGSLGDRSKSVPGLNVDMEEEEEEEDIDHLVKLHRQKLARSSMQSGSSMSTIGSMMSIYSEAGDFGNIFVTGRIAFSLKYEQQTQSLVVHVKECHQLAYADEAKKRSNPYVKTYLLPDKSRQGKRKTSIKRDTINPLYDETLRYEIPESLLAQRTLQFSVWHHGRFGRNTFLGEAEIQMDSWKLDKKLDHCLPLHGKISAESPTGLPSHKGELVVSLKYIPASKTPVGGDRKKSKGGEGGELQVWIKEAKNLTAAKAGGTSDSFVKGYLLPMRNKASKRKTPVMKKTLNPHYNHTFVYNGVRLEDLQHMCLELTVWDREPLASNDFLGGVRLGVGTGISNGEVVDWMDSTGEEVSLWQKMRQYPGSWAEGTLQLRSSMAKQKLGL
Consider B3, for which the binding entry in experiment [2] is recorded as “binds”.

B4: RALGAPB (protein, UniProt Q86X10 1-1494)
chain: MYSEWRSLHLVIQNDQGHTSVLHSYPESVGREVANAVVRPLGQVLGTPSVAGSENLLKTDKEVKWTMEVICYGLTLPLDGETVKYCVDVYTDWIMALVLPKDSIPLPVIKEPNQYVQTILKHLQNLFVPRQEQGSSQIRLCLQVLRAIQKLARESSLMARETWEVLLLFLLQINDILLAPPTVQGGIAENLAEKLIGVLFEVWLLACTRCFPTPPYWKTAKEMVANWRHHPAVVEQWSKVICALTSRLLRFTYGPSFPAFKVPDEDASLIPPEMDNECVAQTWFRFLHMLSNPVDLSNPAIISSTPKFQEQFLNVSGMPQELNQYPCLKHLPQIFFRAMRGISCLVDAFLGISRPRSDSAPPTPVNRLSMPQSAAVSTTPPHNRRHRAVTVNKATMKTSTVSTAHASKVQHQTSSTSPLSSPNQTSSEPRPLPAPRRPKVNSILNLFGSWLFDAAFVHCKLHNGINRDSSMTAITTQASMEFRRKGSQMSTDTMVSNPMFDASEFPDNYEAGRAEACGTLCRIFCSKKTGEEILPAYLSRFYMLLIQGLQINDYVCHPVLASVILNSPPLFCCDLKGIDVVVPYFISALETILPDRELSKFKSYVNPTELRRSSINILLSLLPLPHHFGTVKSEVVLEGKFSNDDSSSYDKPITFLSLKLRLVNILIGALQTETDPNNTQMILGAMLNIVQDSALLEAIGCQMEMGGGENNLKSHSRTNSGISSASGGSTEPTTPDSERPAQALLRDYALNTDSAAGLLIRSIHLVTQRLNSQWRQDMSISLAALELLSGLAKVKVMVDSGDRKRAISSVCTYIVYQCSRPAPLHSRDLHSMIVAAFQCLCVWLTEHPDMLDEKDCLKEVLEIVELGISGSKSKNNEQEVKYKGDKEPNPASMRVKDAAEATLTCIMQLLGAFPSPSGPASPCSLVNETTLIKYSRLPTINKHSFRYFVLDNSVILAMLEQPLGNEQNDFFPSVTVLVRGMSGRLAWAQQLCLLPRGAKANQKLFVPEPRPVPKNDVGFKYSVKHRPFPEEVDKIPFVKADLSIPDLHEIVTEELEERHEKLRSGMAQQIAYEIHLEQQSEEELQKRSFPDPVTDCKPPPPAQEFQTARLFLSHFGFLSLEALKEPANSRLPPHLIALDSTIPGFFDDIGYLDLLPCRPFDTVFIFYMKPGQKTNQEILKNVESSRTVQPHFLEFLLSLGWSVDVGRHPGWTGHVSTSWSINCCDDGEGSQQEVISSEDIGASIFNGQKKVLYYADALTEIAFVVPSPVESLTDSLESNISDQDSDSNMDLMPGILKQPSLTLELFPNHTDNLNSSQRLSPSSRMRKLPQGRPVPPLGPETRVSVVWVERYDDIENFPLSELMTEISTGVETTANSSTSLRSTTLEKEVPVIFIHPLNTGLFRIKIQGATGKFNMVIPLVDGMIVSRRALGFLVRQTVINICRRKRLESDSYSPPHVRRKQKITDIVNKYRNKQLEPEFYTSLFQEVGLKNCSS
Turning to B4, the binding entry in experiment [3] is reported as “binds”.
